This experiment concerns the target human UBQLN2^P497H expressed from pCMV-hUBQLN2^P497H (human) (UniProt Q9UHD9). Briefly: co-IP; extracts of Neuro2A cells 48 h after transfection with control, pCMV-hUBQLN2^P497H (2), pCMV-ubiquitin (3), pCMV-hTDP-43^G348C (4) or combinations; immunoprecipitation of UBQLN2, TDP-43 detected; less TDP-43 bound when ubiquitin was co-expressed (2 + 3, 2 + 3 + 4).

Chains of the proteins cited; added tags and fusions are not shown. Lines headed by an entry give the natural chain unless they say otherwise; changes in a name come on top.
UniProt Q9UHD9: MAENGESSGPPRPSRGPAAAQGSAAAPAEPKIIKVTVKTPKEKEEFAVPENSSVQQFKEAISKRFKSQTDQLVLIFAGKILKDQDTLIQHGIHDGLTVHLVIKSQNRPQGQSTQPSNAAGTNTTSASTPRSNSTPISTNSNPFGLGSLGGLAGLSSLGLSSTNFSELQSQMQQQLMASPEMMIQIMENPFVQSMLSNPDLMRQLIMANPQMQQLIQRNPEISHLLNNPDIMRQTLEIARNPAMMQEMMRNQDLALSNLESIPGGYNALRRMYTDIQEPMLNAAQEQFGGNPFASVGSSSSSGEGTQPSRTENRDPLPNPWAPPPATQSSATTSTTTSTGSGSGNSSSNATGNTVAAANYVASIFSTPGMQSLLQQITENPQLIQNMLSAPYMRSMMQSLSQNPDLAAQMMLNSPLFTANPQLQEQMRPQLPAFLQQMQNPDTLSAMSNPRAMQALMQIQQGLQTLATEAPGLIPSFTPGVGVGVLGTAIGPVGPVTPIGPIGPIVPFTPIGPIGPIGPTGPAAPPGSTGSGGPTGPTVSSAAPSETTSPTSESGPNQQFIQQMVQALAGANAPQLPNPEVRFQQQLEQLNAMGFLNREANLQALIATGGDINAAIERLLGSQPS
UniProt Q921F2: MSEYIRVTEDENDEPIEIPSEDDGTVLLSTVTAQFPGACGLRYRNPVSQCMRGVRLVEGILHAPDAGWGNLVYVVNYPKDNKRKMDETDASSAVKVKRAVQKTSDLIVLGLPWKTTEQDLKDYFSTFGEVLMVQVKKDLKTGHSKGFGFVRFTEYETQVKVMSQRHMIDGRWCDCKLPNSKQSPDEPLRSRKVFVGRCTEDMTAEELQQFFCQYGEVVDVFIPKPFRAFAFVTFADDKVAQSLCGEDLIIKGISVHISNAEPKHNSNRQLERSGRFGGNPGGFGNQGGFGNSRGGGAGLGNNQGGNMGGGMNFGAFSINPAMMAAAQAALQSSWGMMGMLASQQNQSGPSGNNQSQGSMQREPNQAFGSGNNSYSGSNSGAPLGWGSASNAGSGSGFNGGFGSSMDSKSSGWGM

These are yes or no findings as the source states them, for the method shown. In cells and extracts the contact can be indirect. Some results given as binding are weak or reduced against the parent protein; the word gives no strength.

For “mouse TDP-43 (endogenous in Neuro2A) (from UniProt Q921F2 1-414)”, the binding entry is recorded as “binds”.
